Values from PubChem BioAssay AID1224828 (NIAID, 2016)

Screen: 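Find genes required for NF-kappaB p65 moving into the nucleus after LPS in mouse macrophages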 (primary screen)
System: mouse RAW264.7 G9 macrophage reporter cells (GFP-p65, Tnf promoter-mCherry)
Knock-down reagent: siRNA pool against mouse genes, 100 nM
Time to read-out: 2 days siRNA transfection, then 40 min LPS before fixation
Conditions: LPS (Salmonella minnesota R595) at 10 ng/ml
Measured: 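Imaged p65 nuclear translocation ratio, normalised to the plate median, converted to robust z-scores and averaged across two replicates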
Direction: p65 translocation robust z-score: higher = more nuclear NF-kappaB p65 after LPS than the plate median; nuclear/cytoplasmic p65 ratio: higher = more nuclear NF-kappaB p65
Active means: 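Called active when z exceeds 3.3 or falls under -1.56 (median of Tlr4 controls), giving activity score of at least 50; no calls for control wells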
Calls: active = hit (p65 shift raised or lowered); inactive = no clear change
In all, the deposit lists about 17,000 reagents; below is a part drawn at random. 762 of them (4.5%) count as active. 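Active calls include both raised and lowered p65 entry, mostly lowered; wells with fewer than 50 cells lack a z-score.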 Raw values vary from plate to plate and are shown uncorrected. Reagents against one gene are numbered here.

The opening 4 entries, to show the layout:
| target gene | reagent no. | p65 translocation robust z-score | nuclear/cytoplasmic p65 ratio, rep 1 | nuclear/cytoplasmic p65 ratio, rep 2 | low cell count flag | activity call |
| --- | --- | --- | --- | --- | --- | --- |
| Or51f2 (olfactory receptor family 51 subfamily F member 2) | 1 | 0.13 | 1.46 | 1.09 | enough cells to score | inactive |
| Spi1 (Spi-1 proto-oncogene) | 1 | -2.23 | 1.31 | 1.15 | enough cells to score | active |
| Kif20b (kinesin family member 20B) | 1 | 0.39 | 1.54 | 1.35 | enough cells to score | inactive |
| Xrcc5 (X-ray repair complementing 5) | 1 | -1.38 | 1.34 | 1.29 | enough cells to score | inactive |

Main list, from the start:
| target gene | reagent no. | p65 translocation robust z-score | nuclear/cytoplasmic p65 ratio, rep 1 | nuclear/cytoplasmic p65 ratio, rep 2 | low cell count flag | activity call |
| --- | --- | --- | --- | --- | --- | --- |
| Or51f2 (olfactory receptor family 51 subfamily F member 2) | 1 | 0.13 | 1.46 | 1.09 | enough cells to score | inactive |
| Spi1 (Spi-1 proto-oncogene) | 1 | -2.23 | 1.31 | 1.15 | enough cells to score | active |
| Kif20b (kinesin family member 20B) | 1 | 0.39 | 1.54 | 1.35 | enough cells to score | inactive |
| Xrcc5 (X-ray repair complementing 5) | 1 | -1.38 | 1.34 | 1.29 | enough cells to score | inactive |
| Zbtb41 (zinc finger and BTB domain containing 41) | 1 | -1.31 | 1.23 | 1.39 | enough cells to score | inactive |
| Mep1b (meprin 1 beta) | 1 | 0.83 | 1.52 | 1.48 | enough cells to score | inactive |
| Frmd3 (FERM domain containing 3) | 1 | 0.71 | 1.71 | 1.55 | enough cells to score | inactive |
| Hrc (histidine rich calcium binding protein) | 1 | -0.73 | 1.31 | 1.31 | enough cells to score | inactive |
| Grap (GRB2-related adaptor protein) | 1 | -1.47 | 1.23 | 1.19 | enough cells to score | inactive |
| Fbxl14 (F-box and leucine-rich repeat protein 14) | 1 | – | 1.26 | 1.57 | fewer than 50 cells per well; well left out of scoring | inactive |
| Scrn2 (secernin 2) | 1 | -0.58 | 1.25 | 1.15 | enough cells to score | inactive |
| Or4a2 (olfactory receptor family 4 subfamily A member 2) | 1 | – | 1.68 | 1.45 | fewer than 50 cells per well; well left out of scoring | inactive |
| Dusp22 (dual specificity phosphatase 22) | 1 | -1.51 | 1.24 | 1.19 | enough cells to score | inactive |
| Ankrd13b (ankyrin repeat domain 13b) | 1 | -0.68 | 1.49 | 1.72 | enough cells to score | inactive |
| Nsun5 (NOL1/NOP2/Sun domain family, member 5) | 1 | -1.05 | 1.47 | 1.44 | enough cells to score | inactive |
| Slc51a | 1 | -2 | 1.25 | 1.29 | enough cells to score | active |
| Nkx3-1 (NK3 homeobox 1) | 1 | 0.71 | 1.54 | 1.51 | enough cells to score | inactive |
| Canx (calnexin) | 1 | 0.32 | 1.62 | 1.7 | enough cells to score | inactive |
| Pbx2 (pre B cell leukemia homeobox 2) | 1 | -0.69 | 1.28 | 1.39 | enough cells to score | inactive |
| Tnfrsf12a (tumor necrosis factor receptor superfamily, member 12a) | 1 | -0.2 | 1.46 | 1.52 | enough cells to score | inactive |
| Pparg (peroxisome proliferator activated receptor gamma) | 1 | 0.44 | 1.56 | 1.46 | enough cells to score | inactive |
| Zbp1 (Z-DNA binding protein 1) | 1 | 0.4 | 1.47 | 1.37 | enough cells to score | inactive |
| Krt33a (keratin 33A) | 1 | 0.2 | 1.33 | 1.39 | enough cells to score | inactive |
| Creb1 (cAMP responsive element binding protein 1) | 1 | -0.55 | 1.36 | 1.35 | enough cells to score | inactive |
| Creb1 (cAMP responsive element binding protein 1) | 2 | – | 1.18 | 1.33 | fewer than 50 cells per well; well left out of scoring | inactive |
| Nap1l4 (nucleosome assembly protein 1-like 4) | 1 | 1.29 | 1.94 | 1.83 | enough cells to score | inactive |
| Aldh3a2 (aldehyde dehydrogenase family 3, subfamily A2) | 1 | 0.09 | 1.68 | 1.59 | enough cells to score | inactive |
| Tnk1 (tyrosine kinase, non-receptor, 1) | 1 | -2.36 | 1.36 | 1.08 | enough cells to score | active |
| Zp3r (zona pellucida 3 receptor) | 1 | -0.33 | 1.37 | 1.21 | enough cells to score | inactive |
| Gabpa (GA repeat binding protein, alpha) | 1 | 0.16 | 1.41 | 1.44 | enough cells to score | inactive |
| Or13p10 (olfactory receptor family 13 subfamily P member 10) | 1 | 0.12 | 1.48 | 1.26 | enough cells to score | inactive |
| Dlc1 (deleted in liver cancer 1) | 1 | – | 1.24 | 1.09 | fewer than 50 cells per well; well left out of scoring | inactive |
| Dlc1 (deleted in liver cancer 1) | 2 | 0.77 | 1.41 | 1.63 | enough cells to score | inactive |
| Slc27a2 | 1 | 0.44 | 1.6 | 1.56 | enough cells to score | inactive |
| H2-T24 (histocompatibility 2, T region locus 24) | 1 | -0.12 | 1.76 | 1.4 | enough cells to score | inactive |
| Klk1b27 (kallikrein 1-related peptidase b27) | 1 | 1.74 | 1.27 | 1.67 | enough cells to score | inactive |
| Magi2 | 1 | -0.42 | 1.55 | 1.56 | enough cells to score | inactive |
| Ube2i (ubiquitin-conjugating enzyme E2I) | 1 | -0.75 | 1.44 | 1.36 | enough cells to score | inactive |
| Nme6 (NME/NM23 nucleoside diphosphate kinase 6) | 1 | -0.05 | 1.46 | 1.37 | enough cells to score | inactive |
| Synb (syncytin b) | 1 | -0.25 | 1.54 | 1.5 | enough cells to score | inactive |
| Procr (protein C receptor, endothelial) | 1 | 0.06 | 1.48 | 1.44 | enough cells to score | inactive |
| Nfib (nuclear factor I/B) | 1 | -0.62 | 1.4 | 1.3 | enough cells to score | inactive |
| Nfib (nuclear factor I/B) | 2 | -0.62 | 1.36 | 1.3 | enough cells to score | inactive |
| Golga7 (golgin A7) | 1 | -0.46 | 1.4 | 1.64 | enough cells to score | inactive |
| Cfap418 (cilia and flagella associated protein 418) | 1 | – | 1.09 | 1.14 | fewer than 50 cells per well; well left out of scoring | inactive |
| Arhgef15 (Rho guanine nucleotide exchange factor 15) | 1 | 0.07 | 1.42 | 1.42 | enough cells to score | inactive |
| Chchd2l2 | 1 | -1.85 | 1.29 | 1.21 | enough cells to score | active |
| Adam26a (ADAM metallopeptidase domain 26A) | 1 | -0.85 | 1.53 | 1.5 | enough cells to score | inactive |
| Sv2b (synaptic vesicle glycoprotein 2b) | 1 | 1.04 | 1.41 | 1.35 | enough cells to score | inactive |
| Orc4 (origin recognition complex, subunit 4) | 1 | 0.09 | 1.44 | 1.27 | enough cells to score | inactive |
| Abcf1 (ATP-binding cassette, sub-family F member 1) | 1 | -1.84 | 1.25 | 1.48 | enough cells to score | active |
| Serpinb9d (serine (or cysteine) peptidase inhibitor, clade B, member 9d) | 1 | – | 1.36 | 1.29 | fewer than 50 cells per well; well left out of scoring | inactive |
| Or1n1b (olfactory receptor family 1 subfamily N member 1B) | 1 | -0.21 | 1.61 | 1.37 | enough cells to score | inactive |
| Slc25a48 | 1 | -0.18 | 1.51 | 1.28 | enough cells to score | inactive |
| Casp6 (caspase 6) | 1 | 0.3 | 1.7 | 1.62 | enough cells to score | inactive |
| Or5b94 (olfactory receptor family 5 subfamily B member 94) | 1 | – | 1.47 | 1.27 | fewer than 50 cells per well; well left out of scoring | inactive |
| Prl5a1 (prolactin family 5, subfamily a, member 1) | 1 | -1.09 | 1.49 | 1.52 | enough cells to score | inactive |
| Sh3yl1 (Sh3 domain YSC-like 1) | 1 | -0.48 | 1.38 | 1.2 | enough cells to score | inactive |
| Camk1d (calcium/calmodulin-dependent protein kinase ID) | 1 | 0.66 | 1.89 | 1.4 | enough cells to score | inactive |
